Article doi:10.1101/2025.10.28.685088
Where two headings read alike, the source gives them in different places. These are yes or no findings as the source states them, for the method shown. In cells and extracts the contact can be indirect. A yes stands for co-enrichment or nearness to the bait. Other partners may have been found. For some assays here: No binding means not detected with the bait.

Chains of the proteins cited; added tags and fusions are not shown. Lines headed by an entry give the natural chain unless they say otherwise; changes in a name come on top.
UniProt F7VS01: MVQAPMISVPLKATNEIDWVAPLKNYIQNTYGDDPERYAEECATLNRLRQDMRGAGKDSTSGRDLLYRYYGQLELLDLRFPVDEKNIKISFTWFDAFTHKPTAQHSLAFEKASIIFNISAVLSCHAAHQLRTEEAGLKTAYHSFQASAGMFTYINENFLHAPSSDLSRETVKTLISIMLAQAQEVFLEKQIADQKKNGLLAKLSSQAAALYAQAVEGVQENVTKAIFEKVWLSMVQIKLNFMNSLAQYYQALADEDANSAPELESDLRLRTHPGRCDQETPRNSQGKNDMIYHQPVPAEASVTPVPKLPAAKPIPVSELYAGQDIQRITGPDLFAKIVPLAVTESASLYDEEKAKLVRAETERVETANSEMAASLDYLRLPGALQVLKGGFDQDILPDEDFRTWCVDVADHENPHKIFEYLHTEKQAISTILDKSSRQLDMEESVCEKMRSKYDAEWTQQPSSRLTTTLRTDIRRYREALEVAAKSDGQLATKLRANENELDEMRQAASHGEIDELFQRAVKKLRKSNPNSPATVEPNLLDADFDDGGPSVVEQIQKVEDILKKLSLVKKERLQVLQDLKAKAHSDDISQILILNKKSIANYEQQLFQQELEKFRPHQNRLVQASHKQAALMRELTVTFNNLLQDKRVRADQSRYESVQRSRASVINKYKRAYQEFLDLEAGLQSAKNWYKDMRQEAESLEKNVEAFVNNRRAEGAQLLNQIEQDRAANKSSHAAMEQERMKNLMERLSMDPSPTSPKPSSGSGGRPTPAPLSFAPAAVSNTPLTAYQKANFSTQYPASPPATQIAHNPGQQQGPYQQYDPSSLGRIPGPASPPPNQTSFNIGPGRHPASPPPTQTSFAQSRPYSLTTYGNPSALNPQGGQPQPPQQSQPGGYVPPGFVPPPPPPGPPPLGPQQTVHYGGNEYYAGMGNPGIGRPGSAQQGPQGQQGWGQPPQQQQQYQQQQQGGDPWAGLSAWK
UniProt F7VW68: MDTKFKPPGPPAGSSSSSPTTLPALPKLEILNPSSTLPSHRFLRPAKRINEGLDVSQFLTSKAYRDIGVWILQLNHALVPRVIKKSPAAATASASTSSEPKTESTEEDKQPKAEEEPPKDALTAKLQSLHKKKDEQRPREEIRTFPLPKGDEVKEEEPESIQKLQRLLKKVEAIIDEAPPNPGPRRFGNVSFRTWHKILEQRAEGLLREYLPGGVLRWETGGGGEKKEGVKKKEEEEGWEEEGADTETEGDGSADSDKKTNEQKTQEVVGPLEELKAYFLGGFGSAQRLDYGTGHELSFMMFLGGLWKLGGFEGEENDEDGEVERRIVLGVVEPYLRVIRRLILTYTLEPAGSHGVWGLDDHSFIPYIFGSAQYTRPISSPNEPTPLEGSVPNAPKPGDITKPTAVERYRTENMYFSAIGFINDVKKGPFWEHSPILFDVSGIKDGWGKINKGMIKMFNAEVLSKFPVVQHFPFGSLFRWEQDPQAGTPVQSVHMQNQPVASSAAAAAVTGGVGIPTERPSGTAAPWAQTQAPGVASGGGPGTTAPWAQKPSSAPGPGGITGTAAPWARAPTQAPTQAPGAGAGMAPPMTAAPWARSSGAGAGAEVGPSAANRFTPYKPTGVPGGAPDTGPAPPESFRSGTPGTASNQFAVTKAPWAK
UniProt F7W136: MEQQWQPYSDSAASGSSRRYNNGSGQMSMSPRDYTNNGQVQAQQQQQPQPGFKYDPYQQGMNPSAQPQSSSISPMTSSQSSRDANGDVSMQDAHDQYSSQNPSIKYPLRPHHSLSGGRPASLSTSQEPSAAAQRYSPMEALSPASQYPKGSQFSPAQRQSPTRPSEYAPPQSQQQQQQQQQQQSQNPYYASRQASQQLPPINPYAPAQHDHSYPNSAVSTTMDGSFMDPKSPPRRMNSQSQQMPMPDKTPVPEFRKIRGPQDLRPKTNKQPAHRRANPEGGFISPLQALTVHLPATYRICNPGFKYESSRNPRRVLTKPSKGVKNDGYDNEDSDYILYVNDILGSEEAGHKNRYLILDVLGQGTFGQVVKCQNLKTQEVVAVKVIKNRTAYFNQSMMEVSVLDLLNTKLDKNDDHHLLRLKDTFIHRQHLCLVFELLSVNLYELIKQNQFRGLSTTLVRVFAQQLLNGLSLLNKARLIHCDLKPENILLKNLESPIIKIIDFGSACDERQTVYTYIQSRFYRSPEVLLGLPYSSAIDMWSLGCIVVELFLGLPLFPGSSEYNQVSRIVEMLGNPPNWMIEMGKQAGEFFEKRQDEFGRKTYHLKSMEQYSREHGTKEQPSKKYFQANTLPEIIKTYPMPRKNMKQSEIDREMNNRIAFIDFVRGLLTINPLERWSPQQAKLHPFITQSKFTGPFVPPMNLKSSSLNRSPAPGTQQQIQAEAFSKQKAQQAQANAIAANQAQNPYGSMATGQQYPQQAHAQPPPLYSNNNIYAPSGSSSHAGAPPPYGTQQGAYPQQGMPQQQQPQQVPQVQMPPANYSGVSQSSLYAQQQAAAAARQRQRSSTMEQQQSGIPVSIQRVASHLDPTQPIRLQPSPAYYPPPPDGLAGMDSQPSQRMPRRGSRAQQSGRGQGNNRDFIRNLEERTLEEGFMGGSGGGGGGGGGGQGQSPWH
UniProt F7VVC1: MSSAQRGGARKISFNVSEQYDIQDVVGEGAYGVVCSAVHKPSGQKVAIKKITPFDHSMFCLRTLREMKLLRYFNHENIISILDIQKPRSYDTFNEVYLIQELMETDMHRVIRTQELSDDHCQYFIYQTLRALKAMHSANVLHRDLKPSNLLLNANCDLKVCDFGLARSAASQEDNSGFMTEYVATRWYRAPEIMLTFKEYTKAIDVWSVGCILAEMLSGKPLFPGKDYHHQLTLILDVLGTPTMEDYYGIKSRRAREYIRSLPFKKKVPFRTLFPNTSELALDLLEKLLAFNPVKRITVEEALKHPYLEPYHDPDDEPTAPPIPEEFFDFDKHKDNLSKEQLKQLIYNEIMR
UniProt F7VR91: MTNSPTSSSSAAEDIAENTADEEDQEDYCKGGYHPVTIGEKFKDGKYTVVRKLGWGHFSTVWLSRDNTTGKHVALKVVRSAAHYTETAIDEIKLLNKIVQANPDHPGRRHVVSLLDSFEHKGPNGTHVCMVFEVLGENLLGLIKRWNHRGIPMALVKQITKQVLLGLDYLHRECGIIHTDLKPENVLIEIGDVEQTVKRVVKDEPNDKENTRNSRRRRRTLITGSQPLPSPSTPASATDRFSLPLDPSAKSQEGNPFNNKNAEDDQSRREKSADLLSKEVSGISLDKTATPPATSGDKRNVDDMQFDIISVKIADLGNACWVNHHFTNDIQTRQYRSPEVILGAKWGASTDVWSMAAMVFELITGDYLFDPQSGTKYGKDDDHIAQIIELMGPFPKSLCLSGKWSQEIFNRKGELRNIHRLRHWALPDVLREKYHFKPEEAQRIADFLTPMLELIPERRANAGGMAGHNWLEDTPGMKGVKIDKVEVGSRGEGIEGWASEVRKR
UniProt F7VSX1: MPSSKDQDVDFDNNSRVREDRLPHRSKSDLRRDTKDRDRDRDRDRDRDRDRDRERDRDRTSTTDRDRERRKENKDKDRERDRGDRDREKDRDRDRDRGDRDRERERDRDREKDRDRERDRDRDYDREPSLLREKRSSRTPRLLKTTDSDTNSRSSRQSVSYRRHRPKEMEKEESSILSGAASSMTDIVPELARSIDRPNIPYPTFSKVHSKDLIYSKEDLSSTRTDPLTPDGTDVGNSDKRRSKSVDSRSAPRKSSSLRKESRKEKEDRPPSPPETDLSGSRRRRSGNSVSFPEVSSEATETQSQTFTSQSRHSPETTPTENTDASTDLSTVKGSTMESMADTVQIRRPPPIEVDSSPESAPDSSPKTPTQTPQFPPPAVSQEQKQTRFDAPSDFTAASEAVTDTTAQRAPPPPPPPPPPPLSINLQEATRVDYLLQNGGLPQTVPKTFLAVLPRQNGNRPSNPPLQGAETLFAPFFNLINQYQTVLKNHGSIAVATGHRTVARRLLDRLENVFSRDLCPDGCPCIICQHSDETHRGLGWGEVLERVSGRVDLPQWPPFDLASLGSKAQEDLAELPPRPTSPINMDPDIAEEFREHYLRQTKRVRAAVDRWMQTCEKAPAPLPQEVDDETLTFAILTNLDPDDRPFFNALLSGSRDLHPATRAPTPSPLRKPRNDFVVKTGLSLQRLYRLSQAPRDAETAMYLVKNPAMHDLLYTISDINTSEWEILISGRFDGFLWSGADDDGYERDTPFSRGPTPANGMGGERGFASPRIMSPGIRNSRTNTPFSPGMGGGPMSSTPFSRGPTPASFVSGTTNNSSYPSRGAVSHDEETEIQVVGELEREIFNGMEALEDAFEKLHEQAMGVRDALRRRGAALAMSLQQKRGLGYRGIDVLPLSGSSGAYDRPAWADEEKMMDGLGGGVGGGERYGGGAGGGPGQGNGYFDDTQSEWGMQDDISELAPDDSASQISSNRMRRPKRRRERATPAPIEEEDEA
UniProt F7VT55: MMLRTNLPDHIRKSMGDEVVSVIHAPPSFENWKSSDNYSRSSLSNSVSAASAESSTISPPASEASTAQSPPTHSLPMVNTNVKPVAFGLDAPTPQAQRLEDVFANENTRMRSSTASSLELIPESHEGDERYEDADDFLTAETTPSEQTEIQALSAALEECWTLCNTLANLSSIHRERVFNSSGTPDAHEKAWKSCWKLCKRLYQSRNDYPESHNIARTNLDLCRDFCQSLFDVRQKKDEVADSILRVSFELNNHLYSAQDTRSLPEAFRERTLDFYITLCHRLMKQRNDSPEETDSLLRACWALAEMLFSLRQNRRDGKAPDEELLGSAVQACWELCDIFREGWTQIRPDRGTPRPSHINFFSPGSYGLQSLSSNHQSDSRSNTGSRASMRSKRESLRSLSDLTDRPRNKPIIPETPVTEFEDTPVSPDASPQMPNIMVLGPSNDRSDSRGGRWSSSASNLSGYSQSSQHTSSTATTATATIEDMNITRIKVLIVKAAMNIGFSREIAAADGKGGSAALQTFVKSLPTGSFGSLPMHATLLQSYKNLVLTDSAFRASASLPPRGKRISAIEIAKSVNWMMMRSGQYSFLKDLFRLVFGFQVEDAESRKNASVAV

B1: PRO11 (protein, UniProt Q70M86 1-845)
chain: MGTNGVHVSFGAGHEMGGVMGNGSGQPPATEYTLQGVMRFLQTEWHRHERDRNAWEIEKQEMRARIANLEGQARRADATQKALKRYVSILEKKVKEQSAALKSGGKEKGVEDEAEAEDNKTKLDRSALIQEKLRPNTKLSGAPNEAENVEIGPPDDESARNELKTFLDQCQAEFTYLMVTPANPQPPRESPPLPILDDFREGEALNQQLEQSYQRSQQSQIRDLLAQQAAAANATNVAAVQSQQQQPQQQQHAVGPRPQTNQPPKGYGELAQGAPMERSSRGQQLHDILKSGETPDWSASMQSQPVEEPTSALSKAPPMVRGDGREPAVPKSASTTDAWDFNESNFQDPNAMPQPTPQQSFSSRPDTDAFPSAENLTKSPNRGALSHRRKSSSGMARRRSAEHELSLGSLQQKAEGTMFKFRFGLRGHLDVVRTVIFSGGGSPGEPEICTAGDDGLVKRFHIPDRHIGQRNADGDLDVAADFTHRGHSGAVLSLASWSPSPNFSTGGRAQGDGWIFSGGQDATIRVWERGRVDPKATLDGHTDAVWALCVLPTNLGAIFGQTNSHGPPDRILLVSGAADGTVKVWAVSAPPQLTSPQPGPGRRGPGGRVRGNSMSSGSAFPSSPQPTTASNSPFHHTLVHTIKRANSEASPTCITALSPNGETFAVSYADAAIIVYDTRSGEEIGTMASLDTYDGTNNTAVNAVVATTVGLDQTQGPGGEDESGGGPTGGGRSMAGSGVEGTIISGHEDRYIRFFDANSGQCTYNMLAHPGSVSSLSLSPDGRELVSAGHDMSLRFWSLETRSCTQEMTCHRSMRGEGVCAVVWSQDGRWVVSSGGDGMVKVYAR
B2: PRO22 (protein, UniProt F7VWV9 1-1120)
chain: MTIMNALWSKATSSSGDSAQKSAKPTNDAVNTTSEALPDLSERPNAPALPARPALQRNQPSAPPPAAPSNPPPPVPSGSGSGNANNASAQPQDSLSLAQLRRIVAEFPKSEPIAYDYVYSDMGPIEEEVDEWFFYDFWQYVRLNNANHAFDSAWVKMYGEDETWESVDDDGREKFVRNEVEQLQVSSDKTARVEAIGTLLYIVLGRWTATVKKANLPNLADHKVKSAATKEQLDAMKAGVKLLAKYGGLPPMWDALRKAFELFWADDGDASQRVQANNEELMELMHLMTILYISLQTTMDDVEDMAVARKELLALNPNLVHFMLHATAKLRWDDRNILPQAQVGSATFGIPVAANQHRMLMSSQVFLLFWKSLLLVFGGSKHIAEAKKATAETLSDVKDKEIITASPLDYHVFRQEITSKYPSYIPPQCAIPLEAEQTSILPPLPNHPTRNNGQNGILPGPPNQSASASILHQPVHIATPAPSPPPSPGVGGKGGKKQNYQTNQNFPFMYPPLDATSNSAGGKGGAGLQDLLVGRKWEGSDVPASIIEAGELFSTRTRMTRATRQLWEERERFLKFERGWEGADEDLIDELDLSELTLEEKEELGLLKESEKKKEKHGHEIDLGPRPVDDDIKRRLEAVEEFYKEALPHLQSLVIVLLKAIVAIASSFVQPPPGQQNPGPQNNGRAGGGPPQGRGQNNGNNASNDPPSPSDDNVDEARSREIAAKAVTGIMILLLKWLKLSHILKFEYFTQLLLDSNYLPLVLKLFALHDVQQVVESKTDRIEHSFFYFCASRSGVIPPQGLINPTATDFEDVDVSEDEAAPPAIKRNRSPPGAEKGGPPDASSQPTQQQQQQQRFENSDVQSRPEVDELGYPVNPLPKEPITDFSRRNFFSLINYLRVMQKICKHKAHRNLLLVHYKSSNILRKSLKVPQQELRLYTLKLFKNQVPYCGRKWRQSNMRVITAIYLHCRPELRDEWLSGSDVDAEVEEALPLEQALRSLTHWFNVQRYPERMGAEVTAAMREERDFFTRELEKSDWMGWEGIMAGGGMGMDGGGGGPEPMMGMQGMQGMPGMPGMGMGMNMGMPGMGIGGMPGMGGMAGIEYAAAAAAAQTEHENSMGWS

Tests used:
Assay in all cases: proximity labelling
[1] = molecular target: SmDOC2-TurboID (Sordaria macrospora) (UniProt F7W7B3)
[2] = molecular target: SmDOC1-TurboID (Sordaria macrospora) (UniProt F7W7B4)
[3] = molecular target: SCI1-TurboID (STRIPAK complex interactor 1 fused to the TurboID biotin ligase) (Sordaria macrospora)
[4] = molecular target: SCI1-TurboID (STRIPAK complex interactor 1 fused to the TurboID biotin ligase) (Sordaria macrospora); remark: listed apart in the source

Molecule | binding [1] | binding [2] | binding [3] | binding [4]
SmBRO1 (from UniProt F7VS01) | binds | – | – | –
PP2A phosphatase activator PTPA1 (from UniProt F7VW68) | binds | – | – | –
protein kinase YAK1 (from UniProt F7W136) | – | binds | – | –
SmDOC2 (from UniProt F7W7B3) | – | binds | – | –
MEK2-t1 (from UniProt F7W4K9) | binds | binds | – | –
MAK2 (from UniProt F7VVC1) | binds | – | – | –
HAM5 (from UniProt F7VPN9) | no binding | binds | – | –
protein kinase DSK1 (from UniProt F7VR91) | binds | – | – | –
SMAC_05428 (from UniProt F7VSX1) | – | binds | – | –
SMAC_05755 (from UniProt F7VT55) | binds | binds | – | –
B1 | – | – | binds | binds
B2 | – | – | binds | binds
